Source: PubChem BioAssay AID2685 (National Center for Advancing Translational Sciences (NCATS), 2010)
Hit rate of the full screen: of about 320,000 compounds, about 2,100 (0.66%) were called active. Inconclusive results, whose numbers are uncertain, are shown with a selection of clear calls. The call rests on the fitted dose curve; in most records, active means well fitted inhibition curve with a large enough effect in the signal ratio, with a control signal flat (not every such curve was filed as active); inconclusive means small, poorly fitted or top-dose-only effect, or effect the other way, or a change in a side signal; inactive means flat fitted curve, though single readings scatter; the % refers to the signal ratio. A potency beside an inconclusive call is a rough fit, not a confirmed value.

Assay: qHTS Assay for Lipid Storage Modulators in Drosophila S3 Cells
Conditions: BODIPY lipid droplet fluorescence, 18-24 h, cells fed with added oleic acid; lipid storage change, negative = inhibition: at 46.1 µM (top of the series) unless noted
Procedure, shortened: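 Laser-scanning cytometry quantifies lipid droplet accumulation (500–530 nm total intensity; droplet/cell object ratio) in oleic acid-fed (400 uM added) Drosophila S3 cells treated with a concentration series. 20 uM Triacsin C defined 100% inhibition.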
On the % scale 0 is the no-effect control and ±100 the full control effect; potency means the concentration at half of the fitted maximal effect.

Row | SMILES | lipid storage change, negative = inhibition | Potency
1 | CCOc1ccccc1CNC(=O)c1nn(CC)cc1[N+](=O)[O-] | inconclusive: -39.2% | 
2 | COc1ccc(C(=O)Nc2ccc(NC(=O)c3cc(OC)c(OC)c(OC)c3)cn2)cc1 |  | inconclusive: 29.1 µM [falling, single point]
3 | COc1cc(SC)ccc1C(=O)NCCc1c[nH]c2ccccc12 | inconclusive: -17.9% | 
4 | CCOc1ccc(/C=N/NC(=O)c2ccc(Cn3cc(Br)cn3)o2)cc1 |  | inconclusive: 0.517 µM [activator, full curve]
5 | O=C(CNC(=O)c1cccs1)N/N=C/c1ccccc1[N+](=O)[O-] | inconclusive: 35.9% | 
6 | Cc1ccc(OC(C)C(=O)Nc2ccccc2C(=O)N2CCN(C)CC2)cc1 (stereo not given) |  | inconclusive: 16.4 µM [falling, single point]
7 | Cc1cccc(C)c1NC(=O)CNC(=O)C1CCCN(C(=O)c2ccc(Cl)cc2)C1 (stereo not given) | inactive: 10.7% | 
8 | COC(=O)c1ccc(COc2ccc3c(C)c(C)c(=O)oc3c2C)o1 | inconclusive: -6.37% | 
9 | COc1cccc(C(=O)CN(C(=O)c2ccc(Cl)c(Cl)c2)N2C(=O)c3ccccc3C2=O)c1 |  | inconclusive: 0.231 µM [activator, full curve, poor fit]
10 | C=CCNc1nc(C)nc(OC)n1 | inconclusive: -39.5% | 
11 | CS(=O)c1ccccc1O (stereo not given) |  | inconclusive: 0.164 µM [cytotoxic, full curve, poor fit]
12 | CN(Cc1cc([N+](=O)[O-])ccc1Cl)C(=O)C[n+]1ccccc1 | inconclusive: 21.8% | 
13 | Cc1ccc(NC(=S)N(CCN2CCCCC2)Cc2ccco2)cc1C |  | inconclusive: 8.2 µM [rising, partial curve, poor fit]
14 | CCOc1ccc2[nH]c(C(=O)N/N=C/c3cc(OC)c(OC)c(OC)c3)cc2c1 | inconclusive: -20.9% | 
15 | CC1CCN(C(=O)c2[nH]cnc2C(=O)N[C@@H](C)c2ccccc2)CC1 | inconclusive: 3.36% | 
16 | CC(NC(=O)C1CC=CCC1C(=O)O)C1CC2CCC1C2 (stereo not given) | inconclusive: -71.7% | 
17 | COc1ccc(Cl)cc1C(=O)Nc1ccc(NC(=O)C(C)C)cc1 | inconclusive: 28.1% [at 9.22 µM] | 
18 | O=C(NCCCn1ccnc1)/C(=C/c1ccc(F)cc1)NC(=O)c1ccccc1 | inconclusive: 12.4% | 
19 | CCN(CC)CCOC(=O)c1ccc(N/C=C(/C#N)c2nc(-c3ccc(OC)cc3)cs2)cc1 | inconclusive: -80.2% | 
20 | CCN(c1ccccc1)S(=O)(=O)c1ccc(C(=O)NCc2ccccn2)cc1 |  | inconclusive: 3.26 µM [falling, single point]
21 | CC(=O)Nc1ccc(NC(=O)CSc2nccn2Cc2ccccc2)cc1 | inconclusive: 24.3% | 
22 | CSc1ncc(CN2CCCC(C(=O)c3ccc(C(C)(C)C)cc3)C2)cn1 (stereo not given) | inconclusive: -11.9% | 
23 | O=C1CC2(CCN(C(=O)c3ccccc3[N+](=O)[O-])CC2)Oc2ccccc21 | inconclusive: 8.77% | 
24 | O=C(Nc1ccccc1N1CCCC1)c1cccc(-c2cc3ccccc3oc2=O)c1 |  | inconclusive: 0.259 µM [activator, full curve]
25 | Cc1c(Cl)cccc1NC(=O)CCCN1C(=O)c2cccnc2C1=O |  | inconclusive: 6.51 µM [activator, single point]

Row | SMILES | lipid storage change, negative = inhibition | Potency
26 | CCOC(Cn1ccc(=O)[nH]c1=O)OCC | inconclusive: 13.6% | 
27 | Cc1ccccc1-c1nc(CS(=O)(=O)CC(=O)NC2CCCCC2C)c(C)o1 (stereo not given) | inconclusive: 5.61% | 
28 | CCCCn1c(N)c(N(CC(C)C)C(=O)Cn2c(=O)oc3ccccc32)c(=O)[nH]c1=O | inconclusive | 
29 | CC(C)CNC(=O)c1cc2nc3c(c(C(F)(F)F)n2n1)CCc1ccccc1-3 | inconclusive: -4.15% | 
30 | Cc1ccc(NC(=O)CN(C)C(=O)c2cccc(S(=O)(=O)NCc3cccs3)c2)cc1 | inconclusive: -4.28% | 
31 | CCN(C(=O)CSc1ncccc1C(=O)OC(C)C)c1cccc(C)c1 | inconclusive: 9.92% | 
32 | CCCC1(c2ccccc2)NC(=O)N(CC(=O)Nc2cc(OC)cc(OC)c2)C1=O (stereo not given) | inconclusive: 154% | 
33 | Cc1ccc2oc(-c3ccco3)cc(=O)c2c1 | inconclusive: 9.65% | 
34 | Fc1ccc(-c2csc(-c3cccnc3)n2)cc1F | inactive: 14.8% | 
35 | CC(C)c1ccc(/C=N/NC(=O)C(=O)NCCCN2CCOCC2)cc1 | inconclusive: 9.93% | 
36 | O=C(CN(c1ccccc1)S(=O)(=O)c1ccc(F)cc1)NC1CCCCCC1 | inconclusive: 94.5% | 
37 | Cc1cc(C)n2nc(C(=O)OCC(=O)N(CC(C)C)CC(C)C)nc2n1 | inconclusive: -8.29% | 
38 | Cc1cc(F)ccc1NC(=O)C1CCN(C(=O)Nc2ccccc2)CC1 | inconclusive | 
39 | COc1ccc(OCC(=O)OCC(=O)NC2CC2)cc1 |  | inconclusive: 2.31 µM [falling, partial curve, poor fit]
40 | Nc1ccccc1N=Cc1ccc(-c2cccc(Cl)c2)o1 | inconclusive: -41% | 
41 | NC(=O)CSc1nnc(-c2ccc(S(=O)(=O)N3CCCC3)cc2)n1CC1CCCO1 (stereo not given) |  | inconclusive: 0.731 µM [falling, full curve]
42 | NC(=O)CSc1nc2sc3c(c2c2ncnn12)CCCC3 | inconclusive: 70.8% | 
43 | COc1ccc(S(=O)(=O)N2CCOCC2)cc1NC(=O)CN1CCC(Cc2ccccc2)CC1 |  | inconclusive: 2.06 µM [activator, partial curve, poor fit]
44 | Cc1sc2c(c1C)CN(C(C)(C)C)CN2C(=O)c1ccccc1 | inconclusive: -2.17% | 
45 | O=C(CN1CCN(C(c2ccccc2)c2ccccc2)CC1)N1CCOCC1 |  | inconclusive: 0.259 µM [falling, full curve]
46 | NC(=O)C1CCN(C2OC(=O)c3ccccc32)CC1 (stereo not given) | inconclusive: -4.32% | 
47 | Cc1ccc(C(=O)N2CCCC(C(=O)c3cc(F)ccc3F)C2)s1 (stereo not given) | inconclusive: -30.8% | 
48 | C/C=C/Cn1c(SCc2ccccc2)nc2c1c(=O)[nH]c(=O)n2C | inconclusive: 36.9% | 
49 | CCOc1ccc(C(C)=O)cc1CSc1nnc(N)s1 | inconclusive: 79.9% | 
50 | CC(=O)N1CCN(c2ccc(NC(=O)c3cccc(Cl)c3)cc2)CC1 | inconclusive: 79.1% | 

2 entries from above, with tabs:
Row	SMILES	lipid storage change, negative = inhibition	Potency
30	Cc1ccc(NC(=O)CN(C)C(=O)c2cccc(S(=O)(=O)NCc3cccs3)c2)cc1	inconclusive: -4.28%	
37	Cc1cc(C)n2nc(C(=O)OCC(=O)N(CC(C)C)CC(C)C)nc2n1	inconclusive: -8.29%	
